From publication PMC4412882
No constants are given. Whether binding was seen depends on the method and setting. Binding seen in cells or lysates may run through a third protein. Some entries that bind do so weakly or less than the wild type.

The chains behind the UniProt entries cited, without tags or fusion partners.
UniProt P28907: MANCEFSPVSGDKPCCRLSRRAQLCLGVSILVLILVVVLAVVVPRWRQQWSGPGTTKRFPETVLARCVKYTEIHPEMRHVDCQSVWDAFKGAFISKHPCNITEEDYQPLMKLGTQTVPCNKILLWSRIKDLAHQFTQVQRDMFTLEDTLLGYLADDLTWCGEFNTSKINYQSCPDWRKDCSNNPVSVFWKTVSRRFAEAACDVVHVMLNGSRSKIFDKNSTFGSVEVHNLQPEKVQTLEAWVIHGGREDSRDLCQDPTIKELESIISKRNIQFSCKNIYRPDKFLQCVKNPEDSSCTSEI

Biological target: Fgr (human (endogenous in HL-60)) (UniProt P09769)
Experiment: co-IP; Fgr or AhR antibody with protein A/G beads overnight at 4 °C on 250 μg precleared HL-60 whole cell lysate (M-PER buffer); cells untreated or cultured 48 h with 1 μM RA, 20 μM VAF347 or both; blots probed for the partners

CD38 (from UniProt P28907 1-300) (receptor)
binding: binds
